Among all 31,000 sequences or so, about 1,400 (4.5%) were called active.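 The calls were made as follows: active = median seed-adjusted z-score above 1 or below -1; inactive = the rest.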 This is one part of the list.
Experiment: Novel Modifiers of Survival Motor Neuron (SMN) Protein: Gene Identification via Genome-wide siRNA Screen;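 also: luminescence tracks full-length SMN protein made from the SMN2 reporter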
Details: HEK293T SMN2-luciferase reporter, siRNA knockdown, 72 h; actives lie on both sides
In short: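 siRNA screen, 10418 genes ×3 siRNAs; 1 pmol/well, lipid reverse transfection into HEK293T SMN2-luc reporter line. 72 h, 37 °C, 5% CO2; ONE-Glo readout. Data: neg-ctrl normalized, log10, MAD; hit = MAD >1.0 or < -1.0.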

| Sequence | median seed-adjusted z-score |
| --- | --- |
| GGUUGAACCUCGAAGAUCATT against PARL | inactive: -0.0659 |
| GCAAAUGAGUGUGACCUAATT against RAB38 | inactive: -0.165 |
| GAACCACAAGGAGAAGUUUTT against PSMC3 | inactive: -0.701 |
| GGAUAUAAGGUACUCUACATT against CNTN1 | inactive: -0.796 |
| AGACUAAACUACUCUCGAATT against WDR46 | inactive: -0.136 |
| GUUGAUAGGUUGUAUACAATT against B4GALT6 | inactive: 0.224 |
| CGUCAUCACAGUCAACUAUTT against NLGN1 | inactive: 0.187 |
| GUAUCAACCAAAGUAUAGATT against ESCO2 | inactive: 0 |
| CAUCUUGCAUUACAACAUATT against DLGAP1 | inactive: 0.357 |
| CGGAAUCAAUGAUCCUGUATT against RBM22 | inactive: 0.0259 |
| GGACGGUUCGUACCUAGUATT against PPTC7 | inactive: 0.49 |
| GGAGACUUUGAUUCUAUUATT against TPK1 | inactive: 0.521 |
| ACACUCUCAUGGAAUCAGATT against MEOX1 | inactive: 0.0171 |
| GCAAGACCUAUGAAACGAUTT against CADPS | inactive: 0.551 |
| GGAGCUACGCUGUCCACAUTT against FUT4 | inactive: -0.24 |
| CCCGGAGCCUAUCAGCAAATT against NEBL | inactive: 0.0769 |
| CGAUGUCAACUGCUCGGUUTT against CTSC | inactive: 0 |
| CAUGGGAGGUGACACGGAATT against KLHL25 | inactive: -0.0146 |
| GGACCGCUUUUACAAUGCATT against MAP3K5 | inactive: -0.285 |
| CUGUCUAUUUGUUCCCUUUTT against UBE2E3 | inactive: -0.0585 |
| GCUUUUCACCAAAUUGCAATT against MARCO | inactive: 0.137 |
| GGACAUUACCACAAUGGAATT against UGT8 | inactive: 0 |
| GGUUAACAAUAGUUUAUUATT against MUTED | inactive: 0.00377 |

A second format for some results above:
Sequence	median seed-adjusted z-score
GAACCACAAGGAGAAGUUUTT against PSMC3	inactive: -0.701
GGAUAUAAGGUACUCUACATT against CNTN1	inactive: -0.796
AGACUAAACUACUCUCGAATT against WDR46	inactive: -0.136

Next entries follow:

| Sequence | median seed-adjusted z-score |
| --- | --- |
| UGGCGACUUCAGUAAGCUATT against AKR1C2 | inactive: -0.109 |
| CGUCUAUGCAACGACCUGATT against PACSIN1 | inactive: -0.681 |
| GCUCGGAACCUAGACAAGATT against DNAJC11 | inactive: 0.148 |
| AGGUGGGAUUCUAUCCAAATT against USF1 | inactive: 0.16 |
| CAGUCACUGCACUACAGAATT against ATF7 | inactive: 0.903 |
| CCCUUUUGUUUCUCGGAGATT against ERBB4 | inactive: 0.166 |
| GACUGAGGUUUGCUCGAAATT against KCNQ5 | inactive: 0.0191 |
| GAAUGAAUCUACCACCUUUTT against DNTTIP1 | inactive: -0.33 |
| GGAAGUUGUUCAACGAGAUTT against MLPH | active: -1.2 |
| GGAACACGCUGACAGGACATT against FZR1 | inactive: 0.729 |
| CCAUGACCAUAUGAAUCUATT against LIPT1 | inactive: 0.552 |
| CUCCGACAAUUCAACCAGATT against HNF1B | inactive: -0.609 |
| CAGAGCUAAUUUAACUAAATT against ZNF286A | inactive: 0.0368 |
| GGAUGUCAAUGAUGAUUUUTT against DGUOK | inactive: 0.0168 |
| GGACGACUCUGAUCUGGAUTT against DYNC1I1 | inactive: -0.716 |
| CAGUUAACUUAAUAGGUGATT against ADAM30 | inactive: 0.0576 |
| GCCGUAUAAGUGUCAAGCATT against ZNF57 | inactive: 0 |
| GUUUAAGAGAAGUCGUUUATT against KIAA1804 | inactive: -0.211 |
| GCAGAGUCAUGACCAGGGATT against CHST6 | inactive: 0.372 |
| GGAUCCUAAUAUACAUGAATT against IL18R1 | inactive: -0.206 |
| GGAGUUAAUUUGAUUGGGATT against VCAM1 | inactive: 0.19 |
| GGAAAAUACGAACUUUUAATT against GTF2H3 | inactive: 0.356 |
| CUCUUUAGCCGCUUCAUUATT against FMNL1 | inactive: -0.3 |

| Sequence | median seed-adjusted z-score |
| --- | --- |
| CAUCUUAUCAGGCAUCAGATT against ZNF165 | inactive: 0.602 |
| CAGACUUGGGUGAAAUAUATT against CCL20 | inactive: -0.204 |
| GAAGUUUGAUGGGACAAGATT against CD22 | inactive: -0.448 |
| GCCCAUAUCUGCUUAGUCATT against PELO | inactive: 0.394 |
| GGAACCUGGUGACCAUAGATT against ANPEP | inactive: 0.252 |
| GGAAUGCUCCAAAAUGGGATT against FKBP1B | inactive: -0.561 |
| GCUGGAAAGAUUAUCUAUATT against APOL6 | inactive: -0.167 |
| CGACCUACCGAGAAGAAAATT against GJB3 | inactive: -0.198 |
| CCUUACGAAUUGGAGCUAATT against TNPO3 | inactive: 0.577 |
| GGAAGAGACUCAAGGCCUATT against 8-Mar | inactive: -0.106 |
| CCAGCUCUUUCGUAUCUUUTT against CDK3 | inactive: 0.000485 |
| GCUGUACAGUUUAGCUGUATT against ORC6L | inactive: 0 |
| GGGUAACGGUUGUUGAUGUTT against UGDH | inactive: 0.674 |
| GCCCAUUACUUUACCACUUTT against METTL4 | inactive: 0.244 |
| CCCAUUCCCUGUGCUCCAATT against CARD10 | inactive: -0.929 |
| CAUUGUGAAUUGCACGGUGTT against LYPD1 | inactive: -0.0713 |
| AGACGAAGGUGCUGAAACATT against AP2S1 | inactive: 0.146 |
| GCAAUUACAUCGAGAUCAUTT against WNT3 | inactive: -0.839 |
| CUCCUUCUAUCUGCCCAAATT against ADAMTS15 | inactive: 0.765 |
| ACCGGGUGCUGAUCAUGAATT against ABHD14B | inactive: -0.175 |
| GGAAGAUCGAAGUAGGUGATT against MDS1 | inactive: 0.0345 |
| GAAGGUGAUUGGGACAAAATT against MRPS17 | inactive: -0.313 |
| CGUGUACACCCUAAACCUUTT against P2RY6 | inactive: 0.00327 |

From PubChem BioAssay AID1347426 (Functional Genomics Laboratory (NCATS/FGL), 2020)
